Values of other authors as cited in patent US20070179135A1 (priority 2006, published 2007).

Tested on: CB2 and CB1 receptors
Details: inhibition of cAMP production; cited from earlier work

Row | Compound | EC50CB2/EC50CB1 ratio
1 | C=C1CC[C@@H]2[C@@H](C1)c1c(OC)cc(C(C)(C)CCCCCC)cc1OC2(C)C [Example L759656] | > 3000
2 | CCCCCCC(C)(C)c1cc(OC)c2c(c1)OC(C)(C)[C@@H]1CC=C(C)C[C@@H]21 [Example L759633] | > 1000
